## Results of single-concentration screens

Amino acid sequences for entries named in this document (tags omitted).
UniProt P9WPC5, whole entry: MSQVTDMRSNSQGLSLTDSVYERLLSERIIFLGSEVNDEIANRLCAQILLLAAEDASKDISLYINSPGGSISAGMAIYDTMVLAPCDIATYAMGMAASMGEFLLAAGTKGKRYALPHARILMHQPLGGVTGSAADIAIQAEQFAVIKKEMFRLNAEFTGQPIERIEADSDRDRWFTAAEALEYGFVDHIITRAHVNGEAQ
UniProt P9WPC3, whole entry partner: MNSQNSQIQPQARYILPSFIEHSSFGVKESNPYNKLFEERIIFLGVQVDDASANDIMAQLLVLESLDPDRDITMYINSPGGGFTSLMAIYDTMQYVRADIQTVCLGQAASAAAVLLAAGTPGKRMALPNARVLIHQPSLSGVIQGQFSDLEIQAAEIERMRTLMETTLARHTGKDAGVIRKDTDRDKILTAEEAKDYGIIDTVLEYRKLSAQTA

The filed quantity is “Percent Effect” (%).
How 0% and 100% were set is not recorded. Most values in the screen are low, and negative values occur.
The compounds are a random part of those screened.

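ClpP1P2, Mycobacterium tuberculosis (UniProt P9WPC5 and UniProt P9WPC3). Protease assay of ClpP1P2, read by the AMC dye that it sets free. Compounds at 50 µM. Higher reads as stronger inhibition, judged from the few compounds that gave an IC50. Most other retested compounds had strongly negative values. Of about 69,000 compounds tested this way, about 10 (0.015%) reached 50% or more in at least one test.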

SMILES	effect
O=C(O)CN1CCOCC(Cc2ccc(Cl)cc2)C1 (stereo unspecified)	1.007
O=C(NCCc1ccn(-c2ccc(F)cc2)n1)C1CCCO1 (stereo unspecified)	-10.11
CC(=O)N1CCC(CN2CCN(Cc3nccn3C)C(C)C2)CC1 (stereo unspecified)	18.48
CN(C)c1cc2c(nn1)CCN(C(=O)C1CCc3ccccc31)C2 (stereo unspecified)	-2.939
CN(c1cccnn1)[C@@H]1CC[C@@H]2CN(Cc3cccc(C(=O)O)c3)C[C@@H]21	-4.562
CN(CC(=O)NCCCOc1ccc(F)cc1)c1ccc(C#N)cn1	-1.291
CCN1c2ccc(-c3cncn3CC(=O)NC(C)(C)C)cc2CC1C (stereo unspecified)	-22.36
CC(CCc1ccccc1)NC(=O)CN1CCOCC1 (stereo unspecified)	-11.11
COc1ccccc1NC(=O)c1ccc(C)n1C	6.225
Cc1nc(-c2ccc(S(=O)(=O)N3CCCCC3)cc2)co1	-5.702
Cc1cc2c(cc1C)C(NC1CC1)CCCO2 (stereo unspecified)	2.868
CCC(C(=O)N1CCCSCC1)N1CCCC1=O (stereo unspecified)	-5.795
CCc1c(C)nc(C)nc1N1CCC(NCCSc2nnnn2C)CC1	-16.22
Cc1ccc(C(=O)N2CCC(O)(CN3CCc4ccccc4C3)C2)s1 (stereo unspecified)	-17.24
Cc1cccc(CN2CCCC(O)(CNCc3ncccc3C)C2=O)c1 (stereo unspecified)	-3.504
CCc1ccsc1C(=O)N1CCCN(Cc2cscn2)CC1	-17.2
CC(C)NC(=O)C1CN(C(=O)Nc2ccccc2)CC12CCOCC2 (stereo unspecified)	4.055
Cc1noc(C)c1CN(Cc1cccnc1)C1CN2CCC1CC2 (stereo unspecified)	-5.343
Cn1cc(CNc2ncnc3c2CCN(Cc2ccsc2)CC3)cn1	-12.57
CCc1ccc(C(=O)O)cc1S(=O)(=O)Nc1ccc(=O)n(C)c1	2.21
Cc1cc(C)n(CC2CN(CC(=O)N3CCC3)CCO2)n1 (stereo unspecified)	-3.986
CCc1cc(C(=O)N2CCCC2c2nc(C)c(CC)c(O)n2)on1 (stereo unspecified)	-0.568
O=C(O)c1csc(NCCc2ccccc2)n1	-5.43
Cc1nnc(CNC(=O)[C@@H]2C[C@H](NC(=O)C(C)(C)C)CN2C)[nH]1	-8.162
Cc1cc(S(=O)(=O)N2CCCN3CCCC3C2)ccc1F (stereo unspecified)	-7.063
CCC(=O)N1CCC(Cc2nccnc2Nc2ccccn2)CC1	-1.039
CN(C)CC(=O)N1CCC2(CCN(Cc3cccc(F)c3)CC2)C1	-3.732
Cc1cnn(CCC(=O)N2CCCC(c3nc(C)no3)C2)c1 (stereo unspecified)	9.49
Cn1ncc2c1CCCC2NCc1cccnc1 (stereo unspecified)	8.699
COCCC(=O)NCc1ccc(-c2ccccc2C(=O)O)cn1	-21.48
NCC(CO)Cc1ccc(OC(F)(F)F)cc1 (stereo unspecified)	-4.136
COCc1n[nH]/c(=N\C(=O)c2c3c(nc4onc(C)c24)CCC3)s1	-1.771
COc1ccccc1N1CCN(Cc2cnc3c(c2)c(C)nn3C)CC1	-2.546
CSc1nccc(N2CCC(NCc3nc(C)cc(C)n3)CC2)n1	-19.68
CC1CCCN1C1CCN(C(=O)c2cccc(-c3ccoc3)c2)CC1 (stereo unspecified)	7.594
COCC1CC2(CCN(Cc3ccc(C)o3)CC2)CN1C(C)C (stereo unspecified)	-17.63
Cc1nc2c(c(NCCCN3CCOCC3)n1)CCN(C)C2	-27.85
Cc1cc(C)c(CNC(=O)NCc2ccc(F)c(C)c2)c(=O)[nH]1	-12.7
c1cc(CN2CCOCC3(CCN(C4CCOCC4)C3)C2)ccn1 (stereo unspecified)	-2.53
O=C(c1ccc(N2CCOCC2)nc1)N1CCCC(n2ccnc2)C1 (stereo unspecified)	-31.98
c1ccc(-c2nnc(CNCCn3cccn3)o2)cc1	-8.69
COc1c(Br)c(CC2CC(CO)=NO2)c(Br)c2c1OCO2 (stereo unspecified)	-34.22
CC(=O)N1C[C@H](NC(=O)c2ccnc(N)c2)[C@@H](C(C)C)C1	-6.387
COc1ccc2c(c1)OCC(CNC1CCc3ncnn3C1)=C2 (stereo unspecified)	-20.3
COCCN(Cc1ccccc1C)c1nc(C)nc2oc(C)nc12	-12.22
CCc1ccc(C(=O)N2CC(C(=O)NC(C)C)C3(CCOCC3)C2)cc1 (stereo unspecified)	-4.442
CC(=O)Nc1nc(C(=O)NCCOc2ccccc2)cs1	3.704

Some entries from above, unchanged:

| SMILES | effect |
|---|---|
| `CN(C)c1cc2c(nn1)CCN(C(=O)C1CCc3ccccc31)C2` (stereo unspecified) | -2.939 |
| `Cc1ccc(C(=O)N2CCC(O)(CN3CCc4ccccc4C3)C2)s1` (stereo unspecified) | -17.24 |
| `O=C(c1ccc(N2CCOCC2)nc1)N1CCCC(n2ccnc2)C1` (stereo unspecified) | -31.98 |
| `CSc1nccc(N2CCC(NCc3nc(C)cc(C)n3)CC2)n1` | -19.68 |

Source: ChEMBL document CHEMBL3988442, “University of Dundee, Small-Polar-MMV Screening Library” (2021).